# Some results come without the dose or concentration used.
# Test system: NCI60 panel of cancer cell lines
# Test: Correlation of GI50 with pyrimidine metabolism enzyme expression and doubling time, NCI60 panel
# Format: cell-based
compound,measurement,value
Nc1ncn([C@@H]2O[C@H](CO)[C@@H](O)[C@H]2O)c(=O)n1 [5-azacytidine],"correlation coefficient r, growth inhibition vs cell doubling-time",0.29

# — US20260076988A1 (The Cleveland Clinic Foundation, priority 2019, published 2026)
